Results published in the supplement of paper PMC10849652.
The list shows a part of the results.

Amino acid sequences for entries named in this document (tags omitted). A change or cut given only in a name is not applied to a line headed by its entry.
UniProt P49914: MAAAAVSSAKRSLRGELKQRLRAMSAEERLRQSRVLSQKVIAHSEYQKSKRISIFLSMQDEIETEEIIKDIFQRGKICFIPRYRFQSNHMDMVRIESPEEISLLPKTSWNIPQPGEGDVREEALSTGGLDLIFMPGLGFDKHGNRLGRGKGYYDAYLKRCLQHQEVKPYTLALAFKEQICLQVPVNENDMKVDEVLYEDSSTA
UniProt P35749, whole entry, looked up: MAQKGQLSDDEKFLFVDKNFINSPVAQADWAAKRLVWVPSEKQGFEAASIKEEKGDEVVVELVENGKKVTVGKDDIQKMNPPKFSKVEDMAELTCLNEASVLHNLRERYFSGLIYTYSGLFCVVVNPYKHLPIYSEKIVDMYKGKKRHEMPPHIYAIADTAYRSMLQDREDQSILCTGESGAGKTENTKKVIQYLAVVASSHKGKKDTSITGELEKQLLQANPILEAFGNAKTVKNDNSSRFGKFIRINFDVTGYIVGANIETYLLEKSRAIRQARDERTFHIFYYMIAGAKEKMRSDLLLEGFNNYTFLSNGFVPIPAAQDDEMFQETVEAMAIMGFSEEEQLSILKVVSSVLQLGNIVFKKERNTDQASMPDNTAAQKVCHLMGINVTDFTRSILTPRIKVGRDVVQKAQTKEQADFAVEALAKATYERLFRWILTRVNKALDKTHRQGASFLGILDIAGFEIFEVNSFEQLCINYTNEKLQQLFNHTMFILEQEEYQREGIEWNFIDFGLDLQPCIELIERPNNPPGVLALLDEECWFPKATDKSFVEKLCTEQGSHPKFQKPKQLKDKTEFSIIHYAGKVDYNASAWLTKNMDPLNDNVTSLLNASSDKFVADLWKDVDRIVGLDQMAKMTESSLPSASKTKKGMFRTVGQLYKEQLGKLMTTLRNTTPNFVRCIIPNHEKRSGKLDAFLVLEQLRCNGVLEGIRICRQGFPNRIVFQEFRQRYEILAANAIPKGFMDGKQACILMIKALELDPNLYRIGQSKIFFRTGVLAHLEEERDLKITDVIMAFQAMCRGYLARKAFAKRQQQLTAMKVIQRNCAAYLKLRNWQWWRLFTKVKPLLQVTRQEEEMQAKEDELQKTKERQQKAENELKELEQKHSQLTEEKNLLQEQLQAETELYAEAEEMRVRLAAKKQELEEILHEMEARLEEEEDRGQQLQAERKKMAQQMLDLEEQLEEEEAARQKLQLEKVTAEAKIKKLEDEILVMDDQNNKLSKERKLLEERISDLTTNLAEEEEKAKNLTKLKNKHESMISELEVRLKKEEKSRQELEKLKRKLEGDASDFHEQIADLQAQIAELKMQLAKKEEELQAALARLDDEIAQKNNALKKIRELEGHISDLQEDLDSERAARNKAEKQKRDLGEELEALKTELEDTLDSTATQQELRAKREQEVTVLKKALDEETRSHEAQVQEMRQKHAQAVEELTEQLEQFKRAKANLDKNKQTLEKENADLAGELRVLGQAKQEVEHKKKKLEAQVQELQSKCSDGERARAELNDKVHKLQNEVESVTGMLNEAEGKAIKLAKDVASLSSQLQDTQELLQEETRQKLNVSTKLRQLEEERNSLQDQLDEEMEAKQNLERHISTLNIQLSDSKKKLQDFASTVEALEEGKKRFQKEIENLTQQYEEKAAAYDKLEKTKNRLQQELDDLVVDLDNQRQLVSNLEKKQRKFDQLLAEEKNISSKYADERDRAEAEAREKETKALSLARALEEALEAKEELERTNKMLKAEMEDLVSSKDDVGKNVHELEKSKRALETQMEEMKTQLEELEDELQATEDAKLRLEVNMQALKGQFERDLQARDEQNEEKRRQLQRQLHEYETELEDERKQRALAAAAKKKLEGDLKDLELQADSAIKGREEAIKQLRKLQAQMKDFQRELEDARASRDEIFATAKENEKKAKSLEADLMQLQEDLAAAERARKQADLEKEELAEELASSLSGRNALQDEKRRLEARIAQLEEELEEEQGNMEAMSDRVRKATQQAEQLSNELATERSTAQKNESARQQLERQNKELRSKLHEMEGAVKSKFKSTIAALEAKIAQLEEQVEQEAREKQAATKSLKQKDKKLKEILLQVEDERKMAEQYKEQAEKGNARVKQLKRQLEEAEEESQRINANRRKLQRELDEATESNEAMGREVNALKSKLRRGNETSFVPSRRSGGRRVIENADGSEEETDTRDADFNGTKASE
UniProt B2RTY4: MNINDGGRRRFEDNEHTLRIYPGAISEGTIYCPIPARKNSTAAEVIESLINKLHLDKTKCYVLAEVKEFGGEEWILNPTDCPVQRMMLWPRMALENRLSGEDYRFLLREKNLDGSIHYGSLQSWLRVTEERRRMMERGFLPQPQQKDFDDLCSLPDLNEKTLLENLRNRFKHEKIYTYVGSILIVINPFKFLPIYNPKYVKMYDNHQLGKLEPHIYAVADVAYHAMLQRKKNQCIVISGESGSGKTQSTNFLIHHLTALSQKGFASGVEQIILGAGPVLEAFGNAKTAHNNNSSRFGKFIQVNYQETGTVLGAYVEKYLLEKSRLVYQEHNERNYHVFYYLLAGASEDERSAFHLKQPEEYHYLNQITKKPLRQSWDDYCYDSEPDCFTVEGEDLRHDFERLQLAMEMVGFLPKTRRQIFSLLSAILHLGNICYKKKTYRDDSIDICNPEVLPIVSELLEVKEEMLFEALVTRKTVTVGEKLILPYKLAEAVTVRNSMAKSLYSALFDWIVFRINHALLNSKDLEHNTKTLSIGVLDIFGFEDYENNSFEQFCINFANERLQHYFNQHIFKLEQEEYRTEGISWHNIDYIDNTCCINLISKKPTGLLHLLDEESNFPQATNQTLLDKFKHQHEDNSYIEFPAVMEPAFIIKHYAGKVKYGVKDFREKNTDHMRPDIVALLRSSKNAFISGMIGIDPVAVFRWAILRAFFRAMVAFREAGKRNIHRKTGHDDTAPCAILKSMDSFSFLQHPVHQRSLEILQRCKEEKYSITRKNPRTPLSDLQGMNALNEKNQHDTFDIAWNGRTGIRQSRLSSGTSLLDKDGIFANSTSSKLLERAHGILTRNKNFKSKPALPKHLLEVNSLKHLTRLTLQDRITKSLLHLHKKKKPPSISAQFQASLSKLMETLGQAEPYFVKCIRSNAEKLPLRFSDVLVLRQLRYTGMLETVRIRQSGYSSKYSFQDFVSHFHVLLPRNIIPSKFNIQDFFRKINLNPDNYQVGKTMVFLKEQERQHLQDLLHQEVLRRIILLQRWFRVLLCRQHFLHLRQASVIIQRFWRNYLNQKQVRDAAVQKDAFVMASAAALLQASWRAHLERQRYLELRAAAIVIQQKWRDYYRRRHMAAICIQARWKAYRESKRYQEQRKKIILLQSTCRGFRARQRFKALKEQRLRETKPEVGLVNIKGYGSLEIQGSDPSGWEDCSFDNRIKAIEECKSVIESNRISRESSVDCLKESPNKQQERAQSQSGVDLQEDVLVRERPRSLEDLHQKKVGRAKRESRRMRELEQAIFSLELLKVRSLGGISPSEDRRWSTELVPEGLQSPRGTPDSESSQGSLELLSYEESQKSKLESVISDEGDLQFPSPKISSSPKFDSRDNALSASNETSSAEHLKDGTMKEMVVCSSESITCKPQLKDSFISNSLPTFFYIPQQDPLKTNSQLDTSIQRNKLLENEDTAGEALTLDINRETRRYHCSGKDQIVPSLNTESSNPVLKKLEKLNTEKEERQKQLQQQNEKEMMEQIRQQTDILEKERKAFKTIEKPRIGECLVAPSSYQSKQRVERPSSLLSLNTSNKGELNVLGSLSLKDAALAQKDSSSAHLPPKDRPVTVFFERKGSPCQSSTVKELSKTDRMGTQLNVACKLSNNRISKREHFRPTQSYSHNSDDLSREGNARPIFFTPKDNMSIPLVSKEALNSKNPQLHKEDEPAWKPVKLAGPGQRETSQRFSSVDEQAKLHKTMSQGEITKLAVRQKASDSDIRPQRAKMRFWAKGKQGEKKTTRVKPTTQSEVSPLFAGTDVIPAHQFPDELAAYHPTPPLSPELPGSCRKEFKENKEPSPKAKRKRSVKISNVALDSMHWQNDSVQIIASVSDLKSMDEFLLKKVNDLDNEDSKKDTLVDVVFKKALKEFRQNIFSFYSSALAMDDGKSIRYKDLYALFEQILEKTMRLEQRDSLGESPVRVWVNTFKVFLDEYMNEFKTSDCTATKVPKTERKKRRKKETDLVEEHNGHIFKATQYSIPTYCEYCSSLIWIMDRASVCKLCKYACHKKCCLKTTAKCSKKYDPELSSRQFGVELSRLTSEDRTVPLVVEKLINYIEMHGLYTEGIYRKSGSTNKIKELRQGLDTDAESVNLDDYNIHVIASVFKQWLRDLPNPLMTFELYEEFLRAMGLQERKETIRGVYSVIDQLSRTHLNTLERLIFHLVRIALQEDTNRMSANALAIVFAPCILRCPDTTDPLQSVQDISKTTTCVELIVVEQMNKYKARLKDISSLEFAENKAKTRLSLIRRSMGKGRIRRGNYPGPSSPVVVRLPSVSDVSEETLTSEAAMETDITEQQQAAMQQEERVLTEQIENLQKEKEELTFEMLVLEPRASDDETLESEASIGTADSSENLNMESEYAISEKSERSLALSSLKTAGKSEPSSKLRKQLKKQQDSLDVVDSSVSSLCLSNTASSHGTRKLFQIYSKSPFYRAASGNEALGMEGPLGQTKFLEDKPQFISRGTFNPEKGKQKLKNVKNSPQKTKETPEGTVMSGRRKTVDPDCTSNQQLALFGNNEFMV
UniProt Q8NCE2: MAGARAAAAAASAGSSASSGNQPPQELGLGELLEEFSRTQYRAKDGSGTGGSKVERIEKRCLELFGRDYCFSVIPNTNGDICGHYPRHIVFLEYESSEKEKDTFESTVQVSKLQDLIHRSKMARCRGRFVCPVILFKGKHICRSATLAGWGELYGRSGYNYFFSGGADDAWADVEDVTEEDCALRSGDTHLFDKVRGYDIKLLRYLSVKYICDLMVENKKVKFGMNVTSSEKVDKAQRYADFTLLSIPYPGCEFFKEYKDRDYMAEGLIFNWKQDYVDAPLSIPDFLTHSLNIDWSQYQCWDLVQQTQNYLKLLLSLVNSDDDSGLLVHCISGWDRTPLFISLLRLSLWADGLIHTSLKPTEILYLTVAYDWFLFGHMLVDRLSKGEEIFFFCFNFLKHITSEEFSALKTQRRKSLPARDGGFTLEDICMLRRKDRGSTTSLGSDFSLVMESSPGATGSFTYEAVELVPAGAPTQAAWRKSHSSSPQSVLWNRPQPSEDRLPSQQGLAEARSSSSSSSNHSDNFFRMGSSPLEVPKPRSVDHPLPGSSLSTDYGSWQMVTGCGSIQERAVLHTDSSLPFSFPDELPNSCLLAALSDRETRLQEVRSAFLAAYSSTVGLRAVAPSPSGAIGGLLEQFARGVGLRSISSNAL
UniProt Q9BUK6: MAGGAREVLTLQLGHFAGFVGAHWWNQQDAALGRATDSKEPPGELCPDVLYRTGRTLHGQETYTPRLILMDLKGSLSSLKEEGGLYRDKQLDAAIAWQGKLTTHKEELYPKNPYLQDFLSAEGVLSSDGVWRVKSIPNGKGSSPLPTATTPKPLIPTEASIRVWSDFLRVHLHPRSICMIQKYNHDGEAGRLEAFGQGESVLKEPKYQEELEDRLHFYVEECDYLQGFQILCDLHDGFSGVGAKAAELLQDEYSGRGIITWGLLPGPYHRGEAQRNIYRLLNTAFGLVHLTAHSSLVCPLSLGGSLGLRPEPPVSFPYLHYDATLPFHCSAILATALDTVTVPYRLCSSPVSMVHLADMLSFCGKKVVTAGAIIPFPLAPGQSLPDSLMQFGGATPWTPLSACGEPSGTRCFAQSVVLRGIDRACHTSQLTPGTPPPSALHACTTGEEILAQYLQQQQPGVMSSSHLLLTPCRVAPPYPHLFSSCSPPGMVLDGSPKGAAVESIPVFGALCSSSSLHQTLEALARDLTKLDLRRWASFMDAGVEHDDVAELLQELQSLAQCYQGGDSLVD

Experiments:
Experiment in all cases: log2 fold change, soluble protein after heating vs DMSO (PISA); higher = thermal stabilisation; K562 cells, 10 uM, 30 min; active = over 0.2 and 3.5 SD of the protein, either way, in both replicates (recomputed)
saracatinib = compound: CN1CCN(CCOc2cc(OC3CCOCC3)c3c(Nc4c(Cl)ccc5c4OCO5)ncnc3c2)CC1 [saracatinib]
Method in brief: (§1)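 For each measurement, 10 μM compound was applied for 30 min to K562 cells at 2×10^6 cells/mL. Aliquots were heated for 3 min across 48°C-58°C, pooled, and extracted in PBS with 0.5% NP-40 at 4°C; the supernatant after 21,000xg for 90 min was soluble protein. This was quantified by TMTpro 16plex LC-MS/MS with channel sums equalised, and thermal stability was reported relative to control samples from duplicates, on a log2 fold-change scale.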

sotrastaurin = compound: CN1CCN(c2nc(C3=C(c4c[nH]c5ccccc45)C(=O)NC3=O)c3ccccc3n2)CC1 [sotrastaurin]
Method in brief: as §1

Tubastatin A = compound: CN1CCc2c(c3ccccc3n2Cc2ccc(C(=O)NO)cc2)C1 [Tubastatin A]
Method in brief: as §1

[1] = compound: CNC(=O)C1=CC=CC=C1NC2=NC(=NC=C2Cl)NC3=C(C=C(C=C3)N4CCOCC4)OC
Method in brief: as §1

defactinib = compound: CNC(=O)c1ccc(Nc2ncc(C(F)(F)F)c(NCc3nccnc3N(C)S(C)(=O)=O)n2)cc1 [defactinib]
Method in brief: as §1

rucaparib = compound: CNCc1ccc(-c2[nH]c3cc(F)cc4c3c2CCNC4=O)cc1 [rucaparib]
Method in brief: as §1

[2] = compound: CNc1nc(-c2ccc3c(N)n[nH]c3c2)cc(N2C[C@@H](C(=O)NC3CCCCC3)CC[C@H]2C)n1
Method in brief: as §1

encorafenib = compound: COC(=O)N[C@@H](C)CNc1nccc(-c2cn(C(C)C)nc2-c2cc(Cl)cc(NS(C)(=O)=O)c2F)n1 [encorafenib]
Method in brief: as §1

[3] = compound: COC(=O)[C@H](CCSC)NC(=O)C1=C(C=C(C=C1)NC[C@H](CS)N)C2=CC=CC=C2
Method in brief: as §1

[4] = compound: COC1=CC=C(C=C1)CN2C=CC3=C2C=C(C=C3)C(=O)NO
Method in brief: as §1

filanesib = compound: CON(C)C(=O)N1N=C(c2cc(F)ccc2F)S[C@@]1(CCCN)c1ccccc1 [filanesib]
Method in brief: as §1

zotarolimus = compound: CO[C@H]1C[C@@H]2CC[C@@H](C)[C@@](O)(O2)C(=O)C(=O)N2CCCC[C@H]2C(=O)O[C@H]([C@H](C)C[C@@H]2CC[C@H](n3cnnn3)[C@H](OC)C2)CC(=O)[C@H](C)/C=C(\C)[C@@H](O)[C@@H](OC)C(=O)[C@H](C)C[C@H](C)/C=C/C=C/C=C/1C [zotarolimus]
Method in brief: as §1

idasanutlin = compound: COc1cc(C(=O)O)ccc1NC(=O)[C@@H]1N[C@@H](CC(C)(C)C)[C@](C#N)(c2ccc(Cl)cc2F)[C@H]1c1cccc(Cl)c1F [idasanutlin]
Method in brief: as §1

alisertib = compound: COc1cc(Nc2ncc3c(n2)-c2ccc(Cl)cc2C(c2c(F)cccc2OC)=NC3)ccc1C(=O)O [alisertib]
Method in brief: as §1

[5] = compound: COc1cc2nc(-c3cc(F)ccc3O)nc(N[C@@H]3CNC[C@H]3C(C)(C)O)c2cc1OC
Method in brief: as §1

gefitinib = compound: COc1cc2ncnc(Nc3ccc(F)c(Cl)c3)c2cc1OCCCN1CCOCC1 [gefitinib]
Method in brief: as §1

[6] = compound: COc1cccc2cc(-c3nc([C@H]4CC[C@H](C(=O)O)CC4)n4ncnc(N)c34)[nH]c12
Method in brief: as §1

lapatinib = compound: CS(=O)(=O)CCNCc1ccc(-c2ccc3ncnc(Nc4ccc(OCc5cccc(F)c5)c(Cl)c4)c3c2)o1 [lapatinib]
Method in brief: as §1

pictilisib = compound: CS(=O)(=O)N1CCN(Cc2cc3nc(-c4cccc5[nH]ncc45)nc(N4CCOCC4)c3s2)CC1 [pictilisib]
Method in brief: as §1

Measured: log2 fold change

MRPS24 (UniProt Q96EL2)
inactive: saracatinib -0.153 | sotrastaurin -0.124 | Tubastatin A 0.024 | [1] 0.067 | defactinib 0.041 | rucaparib 0.153 | [2] 0.137 | encorafenib 0.08 | [3] -0.108 | [4] -0.153 | filanesib 0.047 | zotarolimus 0.088 | idasanutlin -0.134 | alisertib -0.104 | [5] 0.096 | gefitinib -0.056 | [6] -0.014 | lapatinib 0.047 | pictilisib -0.174

MTHFS (UniProt P49914)
inactive: saracatinib -0.023 | sotrastaurin -0.017 | Tubastatin A 0.043 | [1] 0.065 | defactinib -0.053 | rucaparib 0.013 | [2] -0.004 | encorafenib 0.007 | [3] 0.014 | [4] 0.032 | filanesib -0.023 | zotarolimus -0.02 | idasanutlin -0.006 | alisertib -0.065 | [5] 0.041 | gefitinib 0.053 | [6] 0.052 | lapatinib 0.028 | pictilisib 0.016

MRPS33 (UniProt Q9Y291)
inactive: saracatinib -0.033 | sotrastaurin -0.077 | Tubastatin A 0.02 | [1] -0.018 | defactinib 0.087 | rucaparib 0.119 | [2] 0.04 | encorafenib 0.024 | [3] 0.02 | [4] -0.033 | filanesib 0.002 | zotarolimus 0.043 | idasanutlin -0.167 | alisertib -0.052 | [5] -0.057 | gefitinib 0 | [6] 0.008 | lapatinib 0.036 | pictilisib -0.1

MTHFD1, A0A384N5Y3
inactive: saracatinib -0.047 | sotrastaurin 0.025 | Tubastatin A 0.032 | defactinib -0.173 | rucaparib -0.039 | [2] -0.004 | encorafenib -0.003 | [3] -0.036 | filanesib -0.025 | zotarolimus -0.032 | idasanutlin 0.024 | alisertib -0.011 | [5] 0.055 | gefitinib 0.075 | [6] 0.001 | lapatinib -0.016 | pictilisib 0.107

MYH11 isoform 2 (UniProt P35749)
inactive: saracatinib 0.069 | sotrastaurin -0.024 | Tubastatin A -0.025 | [1] 0.03 | defactinib -0.039 | rucaparib -0.034 | [2] 0.009 | encorafenib 0.001 | [3] -0.022 | [4] 0.027 | filanesib -0.002 | zotarolimus 0.022 | idasanutlin -0.045 | alisertib 0.033 | [5] 0.067 | gefitinib 0.025 | [6] -0.033 | lapatinib 0.018 | pictilisib -0.035

MTHFD1 (UniProt P11586)
inactive: saracatinib 0.004 | sotrastaurin 0.018 | Tubastatin A -0.009 | [1] 0.003 | defactinib -0.046 | rucaparib -0.032 | [2] 0.058 | encorafenib 0.04 | [3] -0.036 | [4] 0.048 | filanesib -0.07 | zotarolimus 0.04 | idasanutlin -0.036 | alisertib -0.001 | [5] 0.017 | gefitinib 0.055 | [6] -0.015 | lapatinib 0.014 | pictilisib -0.002

MYO9A isoform 4 (UniProt B2RTY4)
inactive: saracatinib -0.11 | sotrastaurin -0.092 | [1] -0.116 | defactinib 0.167 | [2] 0.038 | [3] -0.006 | [4] -0.068 | filanesib -0.063 | idasanutlin 0.092 | pictilisib 0.208

MRPS5 (UniProt P82675)
inactive: saracatinib -0.094 | sotrastaurin -0.124 | Tubastatin A -0.009 | [1] -0.024 | defactinib 0.068 | rucaparib 0.129 | [2] 0.161 | encorafenib 0.072 | [3] -0.068 | [4] -0.06 | filanesib 0.078 | zotarolimus 0.091 | alisertib 0.021 | [5] 0.015 | gefitinib -0.026 | [6] 0.02 | lapatinib 0.054 | pictilisib -0.026
active: idasanutlin -0.37

MSH6 (UniProt P52701)
inactive: saracatinib -0.142 | sotrastaurin -0.278 | Tubastatin A 0.127 | [1] -0.049 | defactinib -0.379 | rucaparib -0.014 | [2] 0.102 | encorafenib 0.141 | [3] -0.098 | [4] 0.09 | filanesib -0.154 | zotarolimus 0.088 | idasanutlin -0.003 | alisertib 0.75 | [5] -0.017 | gefitinib 0.068 | [6] -0.04 | lapatinib 0.008 | pictilisib -0.026

Two entries drawn at random from the list so far:
MTHFD1, A0A384N5Y3
inactive: saracatinib -0.047 | sotrastaurin 0.025 | Tubastatin A 0.032 | defactinib -0.173 | rucaparib -0.039 | [2] -0.004 | encorafenib -0.003 | [3] -0.036 | filanesib -0.025 | zotarolimus -0.032 | idasanutlin 0.024 | alisertib -0.011 | [5] 0.055 | gefitinib 0.075 | [6] 0.001 | lapatinib -0.016 | pictilisib 0.107

MRPS5 (UniProt P82675)
inactive: saracatinib -0.094 | sotrastaurin -0.124 | Tubastatin A -0.009 | [1] -0.024 | defactinib 0.068 | rucaparib 0.129 | [2] 0.161 | encorafenib 0.072 | [3] -0.068 | [4] -0.06 | filanesib 0.078 | zotarolimus 0.091 | alisertib 0.021 | [5] 0.015 | gefitinib -0.026 | [6] 0.02 | lapatinib 0.054 | pictilisib -0.026
active: idasanutlin -0.37

Later entries:

MRPS18B (UniProt Q9Y676)
inactive: saracatinib -0.038 | sotrastaurin 0.082 | Tubastatin A 0.125 | [1] 0.007 | defactinib -0.016 | rucaparib 0.065 | [2] 0.225 | encorafenib 0.034 | [3] -0.027 | [4] 0.011 | filanesib 0.065 | zotarolimus 0.035 | idasanutlin -0.205 | alisertib 0.069 | [5] 0.024 | gefitinib 0.078 | [6] 0.018 | lapatinib -0.005 | pictilisib -0.106

MRPS15 (UniProt P82914)
inactive: saracatinib -0.134 | sotrastaurin -0.079 | Tubastatin A 0.039 | [1] -0.07 | defactinib 0.035 | rucaparib 0.084 | [2] 0.115 | encorafenib 0.039 | [3] -0.01 | [4] 0.041 | filanesib 0.145 | zotarolimus 0.095 | idasanutlin -0.265 | alisertib -0.024 | [5] 0.016 | gefitinib -0.054 | [6] 0.024 | lapatinib 0.08 | pictilisib -0.13

MVB12A (UniProt Q96EY5)
inactive: saracatinib 0.011 | sotrastaurin 0.003 | Tubastatin A 0.014 | [1] 0.009 | defactinib -0.082 | rucaparib 0.02 | [2] -0.023 | encorafenib 0.034 | [3] -0.159 | [4] -0.231 | filanesib -0.059 | idasanutlin 0.037 | alisertib 0.007 | [5] 0.012 | gefitinib -0.009 | [6] -0.044 | lapatinib 0.002 | pictilisib -0.007

MSH2 (UniProt P43246)
inactive: saracatinib -0.006 | sotrastaurin -0.072 | Tubastatin A 0.041 | [1] 0.065 | defactinib -0.153 | rucaparib -0.06 | [2] 0.031 | encorafenib 0.062 | [3] -0.037 | [4] 0.072 | filanesib 0 | zotarolimus 0.057 | idasanutlin -0.019 | alisertib -0.018 | [5] 0.024 | gefitinib 0.007 | [6] -0.026 | lapatinib -0.021 | pictilisib 0.144

MTMR14 (UniProt Q8NCE2)
inactive: saracatinib -0.037 | sotrastaurin -0.042 | Tubastatin A 0 | [1] 0.008 | defactinib -0.058 | rucaparib -0.017 | [2] -0.064 | encorafenib -0.026 | [3] 0.038 | [4] 0.007 | filanesib 0.026 | zotarolimus -0.04 | idasanutlin 0.02 | alisertib -0.04 | [5] 0.069 | gefitinib -0.02 | [6] 0.017 | lapatinib -0.075 | pictilisib 0.083

MRPS25 (UniProt P82663)
inactive: saracatinib -0.097 | sotrastaurin -0.059 | Tubastatin A 0.084 | [1] -0.021 | defactinib -0.072 | rucaparib 0.129 | [2] 0.233 | encorafenib -0.016 | [3] -0.017 | [4] 0.066 | filanesib 0.029 | zotarolimus 0.053 | idasanutlin -0.185 | alisertib -0.038 | [5] -0.055 | gefitinib 0.058 | [6] -0.046 | lapatinib 0.08 | pictilisib 0.063

MYH10 isoform 3 (UniProt P35580)
inactive: saracatinib 0.019 | sotrastaurin -0.058 | Tubastatin A 0.002 | [1] 0.024 | defactinib -0.039 | rucaparib -0.056 | [2] -0.005 | encorafenib 0.017 | [3] -0.023 | [4] 0.092 | filanesib -0.116 | zotarolimus 0.011 | idasanutlin -0.065 | alisertib -0.025 | [5] 0.036 | gefitinib -0.005 | [6] -0.007 | lapatinib -0.006 | pictilisib -0.033

MSTO1 (UniProt Q9BUK6)
active: [2] 0.235
inactive: saracatinib 0.047 | sotrastaurin 0.025 | Tubastatin A 0.023 | [1] -0.031 | defactinib -0.045 | rucaparib -0.029 | encorafenib 0.04 | [3] 0.034 | [4] -0.022 | filanesib -0.078 | zotarolimus -0.045 | idasanutlin -0.08 | alisertib 0.007 | [5] 0.024 | gefitinib -0.018 | [6] 0.025 | lapatinib -0.009 | pictilisib 0.021
